Binding data for one substance are collected here from paper PMC8741891.

By UniProt entry, the sequences of proteins in these tests, tags left out. Residues count along the entry.
UniProt P01556, residues 22-124: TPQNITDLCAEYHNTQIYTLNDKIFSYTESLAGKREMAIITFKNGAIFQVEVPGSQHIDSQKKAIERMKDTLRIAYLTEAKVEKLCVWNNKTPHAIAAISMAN
UniProt P01555, residues 19-258: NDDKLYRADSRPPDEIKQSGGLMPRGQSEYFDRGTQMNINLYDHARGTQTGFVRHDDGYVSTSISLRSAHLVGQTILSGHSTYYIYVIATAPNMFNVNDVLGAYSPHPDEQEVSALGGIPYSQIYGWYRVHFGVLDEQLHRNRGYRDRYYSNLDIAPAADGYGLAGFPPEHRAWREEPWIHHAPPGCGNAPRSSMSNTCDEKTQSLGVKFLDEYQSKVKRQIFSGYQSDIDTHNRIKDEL

No constants are given. Whether binding was seen depends on the method and setting. Some results given as binding are weak or reduced against the parent protein; the word gives no strength.

The assay deals with Cholera toxin B pentamer (UniProt P01556). In words: ELISA; both purified. In general terms: An ELISA detects its analyte on a solid surface through an enzyme-linked reagent.

As for “Cholera toxin A subunit (from UniProt P01555 19-258)”, the binding entry is “binds”.
